Laboratory results published in US8101777B2, “Ionic liquids based on imidazolium salts incorporating a nitrile functionality” (Ecole Polytechnique Federale de Lausanne, priority 2003, dated 2012).

Experiments:
[1] = Hydrogenation of 1,3-cyclohexadiene by PdCl2 in ionic liquid under biphasic conditions; settings: for Palladium residues in the organic phase / product: inductively coupled plasma (ICP) analysis
[2] = PdCl2 dissolved in the ionic liquid, biphasic

Row | Molecule | Biphenyl yield (palladium complex 0.03 mmol, 110° C., 12 hours, first run) | Overall conversion of 1,3-cyclohexadiene [1, 2] | Selectivity to cyclohexene [1, 2] | Turnover frequency [1, 2] | Cyclohexene yield ([1]; PdCl2 ~5 mg in 1 ml ionic liquid, H2 45 atm, 100° C., 4 h) | Palladium residues in the organic phase / product [1] | Palladium residues in the organic phase / product ([1]; listed as 3c) | Biphenyl yield on repeated runs of catalysis (after six runs of catalysis)
1 | CCCC[n+]1ccn(C)c1.F[B-](F)(F)F [[C4mim][BF4], 1-methyl-3-butylimidazolium tetrafluoroborate, reference compound] | 100% |  |  |  |  |  |  | 
2 | [1-propylnitrile-3-methylimidazolium]BF4 [[C3CNmim][BF4]] |  | 90% | 97% | 247 molmol^−1h^−1 | 90% | No palladium residues in the organic phase are detected | no palladium is detected | above 90%
